Reference: the supplement of paper PMC3334620
The full ranking holds about 33,000 sequences; the median of “E-score (-0.5 to 0.5)” is about -0.0059, and the highest 2% start at about 0.26. The list shows a part of the results.

The sequences below were run against T1, Cin5 (UniProt P40917) (assay: PBM E-score (8-mer binding enrichment) (E-score (-0.5 to 0.5)); higher = stronger / more preferred TF binding). Settings: protein concentration: 100 nM; construct: GST-full length.
T1 sequence: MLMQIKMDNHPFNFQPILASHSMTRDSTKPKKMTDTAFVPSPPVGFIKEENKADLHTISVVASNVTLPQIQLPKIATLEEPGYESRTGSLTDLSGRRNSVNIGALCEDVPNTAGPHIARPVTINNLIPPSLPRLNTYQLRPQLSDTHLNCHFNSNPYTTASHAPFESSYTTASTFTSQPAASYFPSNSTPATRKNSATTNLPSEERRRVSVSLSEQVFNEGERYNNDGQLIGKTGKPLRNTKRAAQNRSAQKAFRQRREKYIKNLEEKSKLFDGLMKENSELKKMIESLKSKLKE
How it was run: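 Detection of bound protein used fluorescent anti-GST, with scans normalised by masliner. The proteins were GST-tagged yeast transcription factors applied at about 100-200 nM to universal all-10-mer Agilent arrays made double-stranded by primer extension. Each ungapped eight-base word, pooled with its reverse complement, was scored with an E-score from the Universal PBM Analysis Suite.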

Row | Sequence | PBM E-score
1 | CTCGCTAA | 0.0174
2 | AGGCAAAT | 0.0818
3 | AAAAACAG | 0.0389
4 | TCGACCCA | 0.025
5 | ATGCATGC | 0.0147
6 | AACGGAAC | 0.241
7 | GACTTGCA | 0.035
8 | AGCAATAA | 0.103
9 | ACAAACTG | -0.0242
10 | AGGCGAGG | -0.184
11 | CGGGAAGA | 0.203
12 | ATGTTATC | 0.155
13 | AGTGCTGG | 0.00095
14 | GCCAGACA | -0.00597
15 | GGTGTCAC | 0.0176
16 | ATACCGGG | 0.0701
17 | CTACTGAC | -0.0455
18 | AGAACTAT | 0.124
19 | ACCCGAGC | -0.0675
20 | TGTATCAA | 0.167
21 | ATTCTCTG | -0.0828
22 | GAGCTATA | -0.132
23 | CGCCTCCG | -0.252
24 | AGTTATCA | 0.048
25 | ACACAGAT | 0.106

Row | Sequence | PBM E-score
26 | CCCAGCGA | -0.127
27 | GGCCAACA | -0.0942
28 | CAGCAATG | -0.154
29 | AGACGGTG | -0.241
30 | CAAGACAG | -0.079
31 | ACGAGTTC | 0.128
32 | CTACCTTC | -0.0653
33 | CATGATTA | 0.321
34 | AACGCCAC | -0.137
35 | CAAAGACG | -0.0507
36 | ACTACCCG | -0.0362
37 | AAAGCAGC | 0.0692
38 | CTCATCGA | 0.0271
39 | GCCGCCGC | -0.245
40 | ATGCCGAC | 0.0385
41 | CTACTAAC | 0.147
42 | ATGGGGAC | -0.0188
43 | ACCTCTCA | -0.0138
44 | CCATAGAG | -0.128
45 | GAGACCTA | -0.0702
46 | GCCGTTCA | -0.08
47 | ACCACAAT | -0.00898
48 | GAACGCGC | -0.0696
49 | GCGACGAC | -0.116
50 | AGAGTGGA | 0.0368

Row | Sequence | PBM E-score
51 | CAATGCCC | -0.138
52 | CACCGATC | 0.0284
53 | ACTCACAA | 0.118
54 | AGGTGAAA | 0.118
55 | AATTCATG | 0.154
56 | CCACAAGG | -0.137
57 | GCGGATCC | -0.0308
58 | CCACTAGC | -0.0422
59 | GCCCGTAA | 0.0467
60 | AGATCTAA | -0.054
61 | AGAGTGCG | -0.0455
62 | GAAGTTGA | 0.0202
63 | AAGGGTAT | 0.157
64 | CGACCGAA | -0.0336
65 | CAGAGAAG | 0.0142
66 | GGAATAGA | 0.223
67 | AGGCTGAC | 0.0576
68 | CCATAATC | 0.245
69 | AAGCTAGC | -0.0698
70 | ATGCCGTG | -0.0333
71 | ATGAACAG | -0.0835
72 | CAGGCGTC | -0.187
73 | ACTGACAG | 0.122
74 | CTCCTCCA | -0.199
75 | AGAGGAAC | -0.0952

Three entries drawn at random from the list so far, as already listed:
Row | Sequence | PBM E-score
26 | CCCAGCGA | -0.127
50 | AGAGTGGA | 0.0368
34 | AACGCCAC | -0.137

Given field by field: entries from further up.
CTACCTTC
  PBM E-score: -0.0653
GAACGCGC
  PBM E-score: -0.0696
ATGCCGTG
  PBM E-score: -0.0333

More records follow.

Row | Sequence | PBM E-score
76 | ATGAATAG | 0.148
77 | AGCGTTAG | -0.0177
78 | CCCTTAGG | -0.161
79 | GTGAAAAA | 0.119
80 | CAATCGAC | -0.0333
81 | ACGAGAGT | 0.0806
82 | GTTATTTA | 0.194
83 | AGCTTAGC | 0.0428
84 | AAAGCTGA | -0.056
85 | AGGTTTCC | -0.0781
86 | CCTCAAAC | -0.0628
87 | CCACCCCG | -0.0979
88 | ATTCTAAG | -0.00535
89 | AATGTCTC | -0.00561
90 | AACAATGA | 0.126
91 | CCCTCCCC | -0.0114
92 | GAAGAGGA | -0.199
93 | ACTCTTCT | 0.077
94 | CTAGCTCC | -0.139
95 | AGGTCCGA | 0.0304
96 | CCCGCGCC | -0.13
97 | ACTTCCAG | -0.0951
98 | AGTAGCCG | 0.0345
99 | AATTAGCG | 0.215
100 | AGAACGTA | 0.116

Row | Sequence | PBM E-score
101 | TCATTGCA | 0.00338
102 | AGAGTAAT | 0.152
103 | TCTCAACA | 0.0118
104 | GAACTCGC | -0.0322
105 | AGGGACAG | -0.22
106 | CGCCCAAC | -0.0562
107 | CAATGCGA | 0.0397
108 | ACCGCTGG | -0.174
109 | CTGCGGTA | -0.0928
110 | ACCATTTA | 0.0867
111 | CCAATGCG | -0.106
112 | GTTGAAGA | 0.065
113 | GAATATTA | 0.274
114 | GGGCGTAC | -0.0142
115 | CCCAGCTA | -0.132
116 | GCTCATCC | 0.0554
117 | AAACCGCC | 0.0261
118 | CGCACGTA | 0.0256
119 | ACGCCCCC | -0.303
120 | GACCAAGA | 0.0486
121 | CAGACGTA | -0.12
122 | CAGGGATA | -0.0677
123 | TTCACAAA | -0.00255
124 | GAGATTGA | 0.0276
125 | ATGCCGCA | 0.0887

Row | Sequence | PBM E-score
126 | ACCTGGAA | 0.167
127 | CATTCCCA | 0.0801
128 | AGACGACA | 0.0143
129 | ACCATAAG | 0.00751
130 | ATATCTGA | 0.21
131 | CGTGGAGA | -0.111
132 | ACGATTCG | 0.0449
133 | GGCTTAAC | 0.0634
134 | ATGAGCGG | 0.0526
135 | GAGGCAAC | -0.0956
136 | AAGGGATG | -0.0396
137 | TCCACCGA | -0.0644
138 | CGCTGCTA | -0.141
139 | ACGTCCAA | 0.0138
140 | GTTGGTAA | 0.121
141 | GCTTATAC | 0.183
142 | TCTGGAAA | 0.07
143 | AGAGAGTA | -0.0187
144 | CCCAGGTA | -0.224
145 | CAATGGGC | -0.0862
146 | CCCCTCGA | 0.0859
147 | CGCGATAG | 0.111
148 | GAGAACTC | -0.0556
149 | AAACGCAC | 0.0202
150 | ATCGTACG | 0.154

Row | Sequence | PBM E-score
151 | AACAGCCC | -0.141
152 | AGTGCCTC | -0.355
153 | AATAGCCA | 0.119
154 | AATTAATC | 0.164
155 | GTTGCAAA | 0.119
156 | CTCCGCGC | -0.0937
157 | CTGCATGC | 0.0678
158 | AGGGTCTC | -0.111
159 | CCGACTAA | -0.0363
160 | TCTCGTCA | 0.122
161 | ATCTATGC | 0.151
162 | GATCTCAC | 0.015
163 | AAGATCAA | 0.19
164 | GACACTAA | 0.115
165 | CAACGGCC | -0.0384
166 | AAGTGTAA | 0.0551
167 | ACTCACTG | 0.00589
168 | AACAACAA | 0.195
169 | AAACGCGC | 0.0535
170 | CGTGTGCA | -0.0136
171 | CAAGTGGG | -0.0937
172 | CACCCGTC | 0.0273
